{"sequences": {"note": "Chains of the proteins cited; added tags and fusions are not shown. Lines headed by an entry give the natural chain unless they say otherwise; changes in a name come on top.", "UniProt Q04491": "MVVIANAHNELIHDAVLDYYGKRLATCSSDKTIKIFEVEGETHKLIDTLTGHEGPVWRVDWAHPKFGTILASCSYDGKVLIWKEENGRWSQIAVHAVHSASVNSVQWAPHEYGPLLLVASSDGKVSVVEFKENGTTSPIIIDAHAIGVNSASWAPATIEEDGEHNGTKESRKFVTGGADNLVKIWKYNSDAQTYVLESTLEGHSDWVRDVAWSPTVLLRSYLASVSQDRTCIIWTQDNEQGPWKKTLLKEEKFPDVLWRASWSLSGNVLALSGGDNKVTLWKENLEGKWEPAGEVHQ"}, "source": "paper PMC3394733", "target": "T1, GST-Pef1p (S. cerevisiae) (UniProt P53238)", "T1 sequence": "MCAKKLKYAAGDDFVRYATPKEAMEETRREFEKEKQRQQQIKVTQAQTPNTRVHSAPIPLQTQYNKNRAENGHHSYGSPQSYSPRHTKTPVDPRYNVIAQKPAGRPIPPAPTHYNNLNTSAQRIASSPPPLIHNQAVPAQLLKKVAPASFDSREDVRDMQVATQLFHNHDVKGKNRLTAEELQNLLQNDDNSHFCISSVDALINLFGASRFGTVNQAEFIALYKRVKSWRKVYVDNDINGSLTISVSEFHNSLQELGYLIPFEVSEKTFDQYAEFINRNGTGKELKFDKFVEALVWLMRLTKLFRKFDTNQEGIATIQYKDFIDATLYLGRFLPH", "assay": "pull-down; GST fusion or GST (40 nM) and Sec13/31p (80 nM) with 1 mM CaCl2, glutathione-Sepharose beads, 4°C 2 h, 20 mM HEPES-KOH pH 8.0, 160 mM potassium acetate, 0.1% Triton X-100; immunoblot with anti-Sec31p; both purified", "note": "These are yes or no findings as the source states them, for the method shown. Sequences can lack the tags named with a protein."}
{"substance": "Sec13/31p complex (from UniProt Q04491 1-297; P38968 1-1273)", "values": [{"measurement": "binding", "value": "no binding (condition: with 1 mM CaCl2)"}]}
